Experimental findings from PubChem BioAssay AID493014 (National Center for Advancing Translational Sciences (NCATS), 2011) are described below.

The nature of the assay: qHTS Assay to Find Inhibitors of Chronic Active B-Cell Receptor Signaling. Particulars: ABC-DLBCL IkBa-CBG/CBR reporter, luminescence ratio (green luciferase fused to IkBa over red control in TMD8 lymphoma cells), 4 h. Put shortly: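 Cell line TMD8 (human ABC DLBCL), stably expressing tet-inducible CBG68-IkBa fusion and CBR; IMDM/0.5% FBS; cpd up to 46 uM; dox induction, 4 h, 37C/5% CO2; dual luminescence; green/red ratio; MG132 control.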
(Quantitative high-throughput screening tests each substance at several concentrations.)

The mark [1] stands for this setting: measured here: CBR red luminescence, cell number.
[2] abbreviates: measured here: IkBa-CBG green luminescence.

The list shows a part of the results. Further columns of the screen follow, without active or inactive calls. The list favours compounds with an active or inconclusive main result. Words in brackets tell the shape of the fitted curve; partial curves, single points and poor fits give uncertain potencies.

Broadly, the AC50 is the concentration giving half of the maximal activity seen. On to `CCCCOc1ccc(C(=O)NCCc2cccs2)cc1`, for which, under setting [1], the half-maximal activity concentration (AC50) is 2.24 µM [rising, partial curve, poor fit].

On to `COc1ccc(CNCC(O)(c2ccccc2)c2ccc(F)cc2)cc1` (stereo not given), for which, under setting [1], the AC50 was 17.8 µM [falling, single point].

On to `Clc1ccc(-c2nnc(-c3ccc(Br)cc3)c(N3CCSCC3)n2)cc1`, for which the AC50 under setting [1] was 7.08 µM [falling, partial curve].

Turning to `Cc1cccc(NC(=O)CNC(=O)Cn2ncc(Cl)c(Cl)c2=O)c1C`, the AC50 under setting [1] is 6.51 µM [falling, full curve, poor fit].

On to `CCCCCn1c(NC2CCCCC2)nc2c1c(=O)[nH]c(=O)n2C`, for which the AC50 under setting [1] is 35.5 µM [rising, single point].

For `N/C(=N\OC(=O)C(c1ccccc1)c1ccccc1)c1ccccn1`, under setting [1], the AC50 is 20.6 µM [rising, partial curve].

Consider `O=c1[nH]c(-c2ccccn2)nc(C(F)(F)F)c1Br`, for which the AC50 is 22.4 µM [rising, single point] under setting [1] and 31.6 µM [falling, single point] under setting [2].

Regarding `O=C(COC(=O)Cc1ccccc1F)Nc1cccc(S(=O)(=O)NC2=NCCCCC2)c1`, the AC50 under setting [1] is 7.08 µM [rising, partial curve, poor fit].

Regarding `O=C1Nc2c(ccc(Cl)c2Cl)C(=O)C1(F)c1ccccc1` (stereo not given), under setting [1], the AC50 is 35.5 µM [falling, single point].

With `O=C(Nc1cccc(-c2csc(Nc3ccccc3)n2)c1)c1cc([N+](=O)[O-])cc(C(F)(F)F)c1`, under setting [1], the AC50 is 3.98 µM [rising, full curve].

On to `CCSc1nnc(NC(=O)c2ccc(C)cc2)s1`, for which, under setting [1], the AC50 is 9.2 µM [falling, partial curve, poor fit].

Take `CCC(CC)C(=O)Nc1ccc(C)c(O)c1`: under setting [1], the AC50 was 7.94 µM [rising, partial curve, poor fit].

With `CC(=O)Oc1ccccc1C(=O)NC(C)CCc1ccccc1` (stereo not given), under setting [1], the AC50 is 35.5 µM [falling, single point].

Regarding `COc1cc(-c2noc(C)c2-c2ccc(N(C)C)nc2)cc(OC)c1OC`, the AC50 reads like this: under setting [1], 5.01 µM [rising, partial curve]; under setting [2], 2.24 µM [falling, partial curve].

In the case of `COc1ccccc1N(CC(=O)N(CC(C)C)CC(C)C)S(=O)(=O)c1cccs1`, the AC50 is, setting by setting: under setting [1], 17.8 µM [falling, single point]; under setting [2], 15.8 µM [rising, partial curve, poor fit].

For the molecule `Cc1ccsc1C(=O)OCC(=O)NCc1ccc2c(c1)OCO2`, under setting [1], the AC50 is 0.1 µM [rising, full curve, poor fit].

With `Cc1nc(SCC(=O)N2CCN(c3ccccc3)CC2)c2oc3ccccc3c2n1`, the AC50 under setting [1] is 20 µM [falling, partial curve].

Take `COc1cccc2c1OCC(C(=O)OCc1cccnc1)=C2`: the AC50 under setting [1] was 35.5 µM [falling, single point].

Take `COc1cc(/C=N/Nc2ccccc2[N+](=O)[O-])cc(OC)c1O`: under setting [1], the AC50 was 0.891 µM [rising, full curve, poor fit].

With `O=C(COc1ncnc2sccc12)N1CCN(S(=O)(=O)c2ccc(Cl)cc2)CC1`, the AC50 under setting [1] is 6.51 µM [rising, partial curve, poor fit].

As to `CSc1cccc(NC(=O)C(C)Sc2ccc(C)cc2)c1` (stereo not given), the AC50 under setting [1] was 0.146 µM [falling, full curve, poor fit].

With `C=CCc1c(C)nc2c(OC)cccc2c1Cl`, the AC50 under setting [1] is 1.26 µM [rising, partial curve, poor fit].

In the case of `Cc1ccc(C(NC(=O)N2CCCCC2)=C(Cl)Cl)cc1F`, under setting [1], the AC50 was 7.31 µM [falling, partial curve, poor fit].

As for `O=C(O)C1Cc2c([nH]c3ccccc23)C(c2ccc3c(c2)OCO3)N1` (stereo not given), the AC50 under setting [1] is 10 µM [falling, partial curve, poor fit].

As to `Cn1cc(/C=N/n2cnc3sc4c(c3c2=O)CCCC4)c2ccccc21`, under setting [1], the AC50 is 0.112 µM [falling, full curve, poor fit].

Take `CCCc1oc2ccc(NS(=O)(=O)c3ccc(OC)cc3)cc2c1C(=O)OCC`: the AC50 is 3.55 µM [rising, partial curve, poor fit] under setting [1] and 3.98 µM [falling, partial curve, poor fit] under setting [2].

Take `Cc1ccc(-c2[nH]c3ccccc3c2C(C[N+](=O)[O-])c2ccco2)cc1` (stereo not given): the AC50 under setting [1] was 13 µM [falling, partial curve, poor fit].

As to `COC(=O)c1sc(NC(=O)COc2ccccc2)nc1C`, under setting [1], the AC50 is 1.16 µM [falling, full curve].

`Clc1ccc(-c2n[nH]c3c2CCCC3)cc1`: under setting [1], the AC50 was 0.794 µM [rising, full curve, poor fit].

Turning to `Cc1ccc(OCCOCCn2ccnc2)c(Br)c1`, under setting [1], the AC50 was 28.2 µM [rising, single point].

Consider `Cc1cc(C)nc(/N=C(\N)Nc2ccccc2-c2ccccc2)n1`, for which, under setting [1], the half-maximal activity concentration (AC50) is 5.62 µM [falling, full curve, poor fit].

As to `O=C(Nc1nccs1)c1ccc(N2C(=O)C3CCCCC3C2=O)cc1` (stereo not given), the AC50 is 8.91 µM [falling, partial curve] under setting [1] and 0.282 µM [rising, full curve] under setting [2].

On to `Cc1ncn2cc(-c3ccc(Cl)cc3Cl)[nH]c(=O)c12`, for which, under setting [1], the AC50 was 3.16 µM [falling, full curve, poor fit].

`CC(C)c1ccc(C(=O)OC2CCOC2=O)cc1` (stereo not given): under setting [1], the AC50 was 14.1 µM [falling, partial curve, poor fit].

`Cc1c(C)n(C)c2ccc(C(=O)NCCN3CCOCC3)cc12`: the AC50 under setting [1] is 14.1 µM [rising, single point].

With `CCc1ccc(/C=C2\Oc3c(ccc(O)c3CN3CCN(CCO)CC3)C2=O)cc1`, under setting [1], the AC50 is 3.55 µM [rising, partial curve, poor fit].

With `COc1cccc(/C=C/C(=O)Nc2ccc(OC)nc2)c1`, the AC50 under setting [1] is 9.2 µM [falling, partial curve].

Consider `CC1CCc2c(nc3ncnn3c2NCCN(C)C)C1` (stereo not given), for which the AC50 under setting [1] is 11.2 µM [rising, partial curve, poor fit].

As for `Cc1ccc(/C=N/NC(=O)c2ccc3ccccc3c2)s1`, under setting [2], the AC50 was 12.6 µM [falling, single point].

Take `O=[N+]([O-])c1ccc(-c2cc(-c3ccncc3)nc3ccc4ccccc4c23)cc1`: under setting [1], the AC50 was 1.41 µM [rising, partial curve].

Take `O=C(CCCC(=O)N1CCN(c2ccccc2F)CC1)c1ccccc1`: the AC50 under setting [1] was 10 µM [rising, single point].

On to `COc1cccc(OC)c1C(=O)Nn1c(-c2cccs2)nc2ccccc2c1=O`, for which, under setting [1], the AC50 was 0.184 µM [rising, full curve, poor fit].

On to `O=C1CCCc2c1cc(C(=O)NCc1ccco1)c(=O)n2-c1ccc(Cl)cc1`, for which, under setting [1], the AC50 is 1.64 µM [falling, full curve, poor fit].

In the case of `CSc1ccc(C#N)cc1NC(=O)c1ccc(Cl)cc1`, under setting [1], the AC50 is 1.64 µM [rising, full curve, poor fit].

For the molecule `C=CCn1c(=O)c2c3c(sc2n2c(Nc4ccccc4)nnc12)CCCC3`, the AC50 is 0.366 µM [falling, full curve, poor fit] under setting [1] and 0.411 µM [rising, full curve] under setting [2].

For the molecule `Cc1c(OCC(=O)NCCCN2CCOCC2)ccc2c1oc(=O)c1ccccc12`, the AC50 under setting [1] is 12.6 µM [rising, single point].

Turning to `COc1ccc(S(=O)(=O)n2nc(OC(=O)c3c(-c4ccccc4Cl)noc3C)cc2N)cc1`, under setting [1], the AC50 is 7.94 µM [falling, partial curve, poor fit].

Turning to `COc1ccccc1NC1=C(NC(C)=O)C(=O)c2ccccc2C1=O`, the half-maximal activity concentration (AC50) under setting [1] was 4.47 µM [rising, single point] and the AC50 under setting [2] was 35.5 µM [rising, partial curve, poor fit].

On to `COc1ccc(-c2csc3nc(-c4cccnc4)nc(Cl)c23)cc1OC`, for which the AC50 under setting [1] is 29.1 µM [falling, single point].

In the case of `Cc1ccc(C(=O)Nc2cc3c(cc2Cl)OCCCO3)cc1`, the AC50 under setting [1] is 3.98 µM [rising, partial curve, poor fit].

Take `O=C(Nc1ccccn1)C1COc2ccccc2O1` (stereo not given): under setting [1], the AC50 was 18.4 µM [falling, partial curve].

As for `O=C(NNC(=O)c1ccc2ccccc2c1O)c1ccccc1Cl`, the AC50 under setting [1] is 23.1 µM [falling, partial curve].

Consider `O=C(O)c1ccc(Cn2nnc3sc4c(c3c2=O)CCCC4)cc1`, for which the AC50 under setting [1] is 11.2 µM [falling, partial curve].

With `Cc1cc(C)n2nc(C(=O)N/N=C/c3ccco3)nc2n1`, under setting [1], the AC50 was 15.8 µM [falling, partial curve, poor fit].

Consider `CC1C/C(=N\NC(=O)c2ccc([N+](=O)[O-])cc2)CC(C)(C)C1` (stereo not given), for which the AC50 under setting [1] is 5.62 µM [rising, single point].

Regarding `O=C(Nc1ccc(Cl)cn1)c1ccc(Oc2ccccc2)cc1`, the AC50 under setting [1] was 6.31 µM [rising, single point].

With `CNC(=O)N(O)C1N(/N=C/c2cccnc2)C(=S)SC1(C)C` (stereo not given), the AC50 under setting [1] is 35.5 µM [rising, single point].

In the case of `C/C(=N\Nc1ncc(Cl)cc1Cl)c1ccccn1`, the AC50 under setting [2] was 35.5 µM [falling, single point].

For the molecule `COc1ccc(C(=O)Nc2cc(C(=O)NCCc3ccccc3)ccc2Cl)cc1`, under setting [1], the AC50 is 0.651 µM [rising, full curve, poor fit].

`O=C(CSc1ncc(C(F)(F)F)cc1Cl)NCC1CCCO1` (stereo not given): the AC50 under setting [1] was 6.31 µM [rising, single point].

Take `Cc1nc(NC(=O)c2ccc(Cl)cc2)sc1-c1csc(Nc2cccc(F)c2)n1`: the AC50 under setting [1] was 3.98 µM [falling, full curve, poor fit].

With `C/C(CCC12CC3CC(CC(C3)C1)C2)=N\NC(N)=S`, the AC50 under setting [2] was 18.4 µM [falling, partial curve, poor fit].

On to `COC(=O)c1cc(-c2cccc([N+](=O)[O-])c2)c2c(=O)[nH]c(=O)n(C)c2n1`, for which the AC50 under setting [1] was 5.62 µM [rising, single point].
